Record: PubChem BioAssay AID1259292 (Sanger Institute, 2017)
Aim: 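Kinase genes whose knock-down synergises with trametinib, cetuximab or BYL719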 (follow-up of hits). Cell system: human colorectal cancer RCM1 cells. Reagents: single siRNA against human genes. Challenge: anchor drugs BYL719 at 1 µM, cetuximab at 5 µg/ml or trametinib at 10 nM, or DMSO vehicle; exposure time not given. Measured: 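Replicate-averaged viability as a fraction of non-targeting pool 2 wells, under DMSO, BYL719 1 µM, cetuximab 5 µg/ml or trametinib 10 nM (time unstated), plus a synergy score for each drug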. Reading the numbers: synergy score with trametinib and synergy score with cetuximab and synergy score with BYL719: higher = stronger combined killing beyond expected (synthetic lethal). Rule for the call: 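Synergy called if the score for BYL719, cetuximab or trametinib, any one of them, exceeds 0.10; genes below this for all three show no synergy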. Calls: active = synergy with at least one anchor drug; inactive = no synergy with any anchor drug.
The whole screen tested 160 reagents; below is a part drawn at random. Of all reagents, 64 (40%) were called active. 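Four separate siRNAs per gene; a call can rest on any single drug, so look at each drug's score.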 Reagents against one gene are numbered here. Further read-outs or replicates are left out here. The record does not give: the amount of reagent, the time to read-out.

Knock-down of KCNH8 #1 gave: synergy score with trametinib 0.151; synergy score with cetuximab -0.106; synergy score with BYL719 = -0.103; active.
Knock-down of KCNH8 #2 gave: synergy score with trametinib 0.28; synergy score with cetuximab 0.123; synergy score with BYL719 = -0.0864; active.
Against KCNH8 #3, the entry reads synergy score with trametinib -0.038; synergy score with cetuximab -0.0686; synergy score with BYL719 = -0.162; inactive.
KCNH8 #4 scored synergy score with trametinib 0.104; synergy score with cetuximab 0.048; synergy score with BYL719 = -0.00939; active.
Silencing of RPS6KA4 #1 gave: synergy score with trametinib 0.0864; synergy score with cetuximab 0.046; synergy score with BYL719 = -0.0886; inactive.
After knock-down of RPS6KA4 #2, the screen gave synergy score with trametinib 0.0674; synergy score with cetuximab -0.0479; synergy score with BYL719 = -0.162; inactive.
Against RPS6KA4 #3 the deposit lists synergy score with trametinib 0.0401; synergy score with cetuximab 0.000698; synergy score with BYL719 = -0.0559; inactive.
Against RPS6KA4 #4, the values are synergy score with trametinib 0.222; synergy score with cetuximab 0.0911; synergy score with BYL719 = 0.166; active.
AK2 #1 gave synergy score with trametinib 0.112; synergy score with cetuximab 0.0675; synergy score with BYL719 = 0.0245; active.
Depletion of AK2 #2 gave: synergy score with trametinib 0.264; synergy score with cetuximab -0.0247; synergy score with BYL719 = -0.0665; active.
With knock-down of AK2 #3, the screen gave synergy score with trametinib -0.0779; synergy score with cetuximab -0.0686; synergy score with BYL719 = -0.162; inactive.
Against AK2 #4, the values are synergy score with trametinib 0.325; synergy score with cetuximab -0.0596; synergy score with BYL719 = 0.0428; active.

Reagents listed so far called active (7):
KCNH8 #1 — synergy score with trametinib = 0.151; synergy score with cetuximab = -0.106; synergy score with BYL719 = -0.103; outcome = active
KCNH8 #2 — synergy score with trametinib = 0.28; synergy score with cetuximab = 0.123; synergy score with BYL719 = -0.0864; outcome = active
KCNH8 #4 — synergy score with trametinib = 0.104; synergy score with cetuximab = 0.048; synergy score with BYL719 = -0.00939; outcome = active
RPS6KA4 #4 — synergy score with trametinib = 0.222; synergy score with cetuximab = 0.0911; synergy score with BYL719 = 0.166; outcome = active
AK2 #1 — synergy score with trametinib = 0.112; synergy score with cetuximab = 0.0675; synergy score with BYL719 = 0.0245; outcome = active
AK2 #2 — synergy score with trametinib = 0.264; synergy score with cetuximab = -0.0247; synergy score with BYL719 = -0.0665; outcome = active
AK2 #4 — synergy score with trametinib = 0.325; synergy score with cetuximab = -0.0596; synergy score with BYL719 = 0.0428; outcome = active

The listing continues:
With knock-down of CSNK2A2 #1, the screen gave synergy score with trametinib -0.0788; synergy score with cetuximab -0.144; synergy score with BYL719 = -0.248; inactive.
Knock-down of CSNK2A2 #2 resulted in: synergy score with trametinib 0.0104; synergy score with cetuximab -0.0386; synergy score with BYL719 = -0.132; inactive.
CSNK2A2 #3 showed synergy score with trametinib -0.0759; synergy score with cetuximab -0.0888; synergy score with BYL719 = -0.209; inactive.
For CSNK2A2 #4, the entry reads synergy score with trametinib 0.0539; synergy score with cetuximab -0.0626; synergy score with BYL719 = -0.0474; inactive.
MPP3 #1 showed synergy score with trametinib 0.0648; synergy score with cetuximab -0.0477; synergy score with BYL719 = 0.00582; inactive.
Silencing of MPP3 #2 gave: synergy score with trametinib 0.0151; synergy score with cetuximab -0.0686; synergy score with BYL719 = -0.103; inactive.
Silencing of MPP3 #3 came out at: synergy score with trametinib 0.104; synergy score with cetuximab -0.0807; synergy score with BYL719 = -0.0515; active.
For MPP3 #4, the entry reads synergy score with trametinib 0.223; synergy score with cetuximab 0.239; synergy score with BYL719 = 0.0562; active.
